The text below walks through data of paper PMC3182252.

The chains behind the UniProt entries cited, without tags or fusion partners. Where a name states a change or a piece, a line headed by the entry shows the natural chain unless it says otherwise. Residues count along the entry.
UniProt P35968: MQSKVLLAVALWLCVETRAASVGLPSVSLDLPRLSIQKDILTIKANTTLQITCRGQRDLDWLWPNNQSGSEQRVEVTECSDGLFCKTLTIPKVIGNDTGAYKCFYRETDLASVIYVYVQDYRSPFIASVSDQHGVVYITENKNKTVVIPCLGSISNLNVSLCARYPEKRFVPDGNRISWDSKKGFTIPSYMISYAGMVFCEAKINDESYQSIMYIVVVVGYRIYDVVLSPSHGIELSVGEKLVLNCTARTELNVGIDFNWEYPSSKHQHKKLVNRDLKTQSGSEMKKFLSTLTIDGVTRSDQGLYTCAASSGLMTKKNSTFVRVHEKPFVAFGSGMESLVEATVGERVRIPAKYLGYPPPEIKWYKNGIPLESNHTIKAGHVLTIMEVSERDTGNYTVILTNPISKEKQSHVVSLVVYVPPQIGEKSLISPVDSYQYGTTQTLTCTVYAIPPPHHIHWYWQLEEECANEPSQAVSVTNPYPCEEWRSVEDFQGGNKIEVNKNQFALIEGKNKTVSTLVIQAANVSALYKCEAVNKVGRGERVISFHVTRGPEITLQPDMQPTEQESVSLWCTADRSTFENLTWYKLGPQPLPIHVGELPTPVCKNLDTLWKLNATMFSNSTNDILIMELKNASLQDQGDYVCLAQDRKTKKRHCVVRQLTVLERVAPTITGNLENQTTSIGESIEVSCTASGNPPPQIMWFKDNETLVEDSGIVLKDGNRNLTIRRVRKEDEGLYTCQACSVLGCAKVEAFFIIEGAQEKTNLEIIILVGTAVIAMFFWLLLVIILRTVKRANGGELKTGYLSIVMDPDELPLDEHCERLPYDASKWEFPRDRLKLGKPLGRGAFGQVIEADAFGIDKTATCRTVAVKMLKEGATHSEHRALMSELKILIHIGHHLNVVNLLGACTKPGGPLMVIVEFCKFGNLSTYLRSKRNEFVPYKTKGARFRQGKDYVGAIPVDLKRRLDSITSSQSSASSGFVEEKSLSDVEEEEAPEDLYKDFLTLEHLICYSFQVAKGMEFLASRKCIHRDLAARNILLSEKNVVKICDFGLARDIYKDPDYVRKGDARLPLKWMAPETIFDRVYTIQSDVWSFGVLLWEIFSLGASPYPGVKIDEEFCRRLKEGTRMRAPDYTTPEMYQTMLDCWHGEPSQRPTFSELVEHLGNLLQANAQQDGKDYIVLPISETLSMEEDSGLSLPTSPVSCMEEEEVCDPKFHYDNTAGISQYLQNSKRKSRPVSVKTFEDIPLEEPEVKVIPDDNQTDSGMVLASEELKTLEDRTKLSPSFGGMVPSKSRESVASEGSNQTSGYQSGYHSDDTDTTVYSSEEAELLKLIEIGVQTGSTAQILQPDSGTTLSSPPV
Vascular Endothelial Growth Factor Receptor-2 (VEGFR2), nuclear (human (endogenous in HUVEC)): residues 20-1356 of P35968
VEGFR2 (789-1356)-GST: residues 789-1356 of P35968
UniProt P08047: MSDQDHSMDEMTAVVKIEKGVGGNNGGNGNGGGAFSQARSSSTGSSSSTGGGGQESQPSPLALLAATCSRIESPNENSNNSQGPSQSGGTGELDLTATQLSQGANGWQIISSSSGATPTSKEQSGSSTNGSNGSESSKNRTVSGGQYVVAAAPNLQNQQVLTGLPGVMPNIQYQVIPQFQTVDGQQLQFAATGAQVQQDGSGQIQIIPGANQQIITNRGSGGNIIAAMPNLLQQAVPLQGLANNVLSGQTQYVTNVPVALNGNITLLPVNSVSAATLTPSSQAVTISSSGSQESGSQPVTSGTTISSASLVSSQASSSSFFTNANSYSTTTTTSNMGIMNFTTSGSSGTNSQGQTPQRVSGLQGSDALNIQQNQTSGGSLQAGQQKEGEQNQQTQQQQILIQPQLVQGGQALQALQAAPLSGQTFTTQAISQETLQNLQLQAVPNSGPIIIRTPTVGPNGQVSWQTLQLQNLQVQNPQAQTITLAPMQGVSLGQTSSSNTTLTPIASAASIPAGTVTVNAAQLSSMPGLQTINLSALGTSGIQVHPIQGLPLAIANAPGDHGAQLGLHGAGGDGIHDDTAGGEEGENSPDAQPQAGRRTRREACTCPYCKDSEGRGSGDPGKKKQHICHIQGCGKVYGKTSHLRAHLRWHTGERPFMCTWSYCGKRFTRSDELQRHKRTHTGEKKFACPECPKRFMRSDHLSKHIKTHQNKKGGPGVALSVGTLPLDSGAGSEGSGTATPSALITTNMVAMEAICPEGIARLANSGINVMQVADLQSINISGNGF

Results are given in words; binding and its absence hold for the method and conditions named. For some assays here: Binding seen in cells or lysates may run through a third protein. Some entries that bind do so weakly or less than the wild type.

The target in test [1] is VEGFR2 (789-1356)-GST (human) (UniProt P35968). Nature of the test: pull-down; 3 µg Sp1-HA (pre-cleared on glutathione-sepharose 4B) incubated with 3 µg VEGFR2 (789-1356)-GST overnight at 4°C; 50 mM Tris-HCl pH 7.5, 150 mM NaCl, 10% glycerol, 1% NP-40, 1 mM orthovanadate; recovered on glutathione-sepharose beads, eight washes; immunoblot with GST and Sp1 antibodies; both purified. (In general: In western blotting, separated proteins are transferred to a membrane and probed.)

For test [2], the target named is Vascular Endothelial Growth Factor Receptor-2 (VEGFR2), nuclear (human (endogenous in HUVEC)) (UniProt P35968). Nature of the test: co-IP; EC nuclear extracts precipitated with anti-VEGFR2 or anti-Sp1 antibody and protein G-Sepharose, overnight at 4°C; washed once in lysis buffer with 500 mM NaCl and twice with 150 mM NaCl; immunoblot for VEGFR2 and Sp1.

On to “Sp1 protein fused to a HA tag (Sp1-HA) (from UniProt P08047 1-785)”, for which the binding result in test [1] is given as “binds”.
On to “Sp1 transcription factor (from UniProt P08047 1-785)”, for which, in test [2], the binding entry is reported as “binds”.
